Measurements taken from PubChem BioAssay AID504834 (National Center for Advancing Translational Sciences (NCATS), 2011).
Where “and” joins values, the source holds several entries; their conditions need not be identical. Identical values can stand only once. The campaign covered roughly 320,000 compounds. About 22,000 (6.9%) were called active. Inconclusive means that the source gave no clear call. Such entries were picked first, then a sample of the others. Calls follow the shape of the dose curve; as a rule, active = well fitted inhibition curve with a large enough effect; inconclusive = small, poorly fitted or top-dose-only effect, or another doubt; inactive = no such curve, though single readings can be large or run the other way. Potencies of inconclusive entries are doubtful fits and often do not repeat.

Test: Primary qHTS for delayed death inhibitors of the malarial parasite plastid, 96 hour incubation
Details: P. falciparum luciferase reporter growth; series mostly up to 28.7 µM
Summary of the method: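 P. falciparum expressing integrated firefly luciferase, in erythrocytes at 2% hematocrit, 0.05% parasitemia, incubated with compounds 96 h at 37 C, 5% CO2. Growth inhibition read as loss of luminescence; two-generation exposure targets delayed-death apicoplast inhibitors.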
Potency is read from the fitted curve at half-maximal effect.

Row | Compound | Potency
1 | COc1ccccc1NC(=O)c1csc2c1CCCC2 | inactive
2 | Cn1c(SCc2ccc(C#N)cc2)nnc1-c1ccccc1 | inconclusive: 11.7 µM [inhibitor, single point]
3 | O=C(/C=C/c1ccco1)Nc1cccc(-c2nc3ccccc3[nH]2)c1 | inconclusive: 18.5 µM [inhibitor, partial curve, poor fit]
4 | CC(NC(=O)CN(c1ccc(Br)cc1)S(C)(=O)=O)c1ccccc1 (stereo not given) | inconclusive: 1.31 µM [inhibitor, partial curve, poor fit]
5 | CSc1cccc(NS(=O)(=O)c2ccc3c(c2)NC(=O)C(C)C(=O)N3)c1 (stereo not given) | inconclusive: 13.1 µM [inhibitor, single point]
6 | O=c1[nH]c(SCc2cccc([N+](=O)[O-])c2)nc2[nH]ncc12 | inconclusive: 13.1 µM [inhibitor, partial curve, poor fit]
7 | Cc1nc2ccc(C(=O)O)cc2c2c1CC(CN)O2 (stereo not given) | inconclusive: 18.5 µM [inhibitor, single point]
8 | CS(=O)(=O)N1CCc2cc(C(=O)Nc3ccccc3Cl)ccc21 | inconclusive: 13.1 µM [inhibitor, single point]
9 | COC(=O)Cn1nc(-c2ccccc2)c2ccccc21 | inconclusive: 9.28 µM [inhibitor, single point]
10 | Cc1ccc(S(=O)(=O)N(C)C)cc1NC(=O)C(C)N(C)CCOc1ccc(Cl)cc1 (stereo not given) | inconclusive: 5.86 µM [inhibitor, partial curve, poor fit]
11 | Cc1cccc(OCc2nc3c4c(ncn3n2)-c2ccccc2CC42CCCC2)c1 | inconclusive: 3.29 µM [inhibitor, partial curve, poor fit]
12 | COc1cccc(Cn2cccc(NC(=O)NC3CCCCC3)c2=O)c1 | inconclusive: 2.62 µM [inhibitor, partial curve, poor fit]
13 | O=C1OCCC1(c1ccccc1)c1ccccc1 | inconclusive: 10.4 µM [inhibitor, single point]
14 | CCCC[C@@H]1C[C@H]1[C@@H](NC(=O)c1cccs1)c1ccc(Cl)cc1 | active: 9.28 µM
15 | C[C@H](NC(N)=O)C(=O)N1CCN(S(=O)(=O)c2ccc3ccccc3c2)CC1 | inactive
16 | O=C(CSc1nc(=O)n(CCCN2CCOCC2)c2c1CCCC2)Nc1ccc(F)cc1F | inconclusive: 18.5 µM [inhibitor, single point]
17 | N=c1c2c(ncn1Cc1ccco1)Oc1cc(O)ccc1C2c1ccccc1 (stereo not given) | inconclusive: 11.7 µM [inhibitor, partial curve, poor fit]
18 | Cc1c(C(=O)Nc2ccc3c(c2)CCC3)cccc1[N+](=O)[O-] | inconclusive: 10.4 µM [inhibitor, single point]
19 | O=C(Nc1nc2ccc(S(=O)(=O)N3CCCCC3)cc2s1)c1cccnc1 | inconclusive: 10.4 µM [inhibitor, partial curve, poor fit]
20 | O=C(CSc1nnc(-c2cccnc2)n1-c1ccc(SC(F)F)cc1)N1CCCc2ccccc21 | active: 10.4 µM
21 | CNC(=S)N/N=C/c1cn(CCOc2ccccc2OC)c2ccccc12 | inconclusive: 1.04 µM [inhibitor, partial curve, poor fit]
22 | CCc1nnc(NS(=O)(=O)c2ccc(NC(=O)CCC(=O)OC)cc2)s1 | inconclusive: 20.8 µM [inhibitor, single point]

Row | Compound | Potency
23 | COc1cc2c(cc1OC)CN(C(=O)CCc1c[nH]c3ccccc13)[C@H](C(=O)O)C2 | inactive
24 | CC(C)(C)c1ccc(/C=C/C(=O)N2CCCCC2)cc1 | inconclusive: 2.62 µM [inhibitor, full curve]
25 | COc1ccc(CCNC(=O)CN(C)S(=O)(=O)c2cccs2)cc1OC | inconclusive: 16.5 µM [inhibitor, single point]
26 | COc1ccc(NC(=O)CCNC(=O)c2ccccc2Cl)cc1OC | inconclusive: 4.65 µM [inhibitor, partial curve, poor fit]
27 | Cc1nn(-c2ccccc2)c(C)c1NC(=O)COC(=O)c1ccc(Cl)c(S(N)(=O)=O)c1 | inactive
28 | O=C(NCc1ccncc1)c1cc(C(=O)C2CC2)c[nH]1 | inactive
29 | C#CCOCCOCCOCCNc1nc(N2CCN(C(=O)[C@H]([C@@H](C)CC)n3cc([C@@H](N)Cc4ccc(O)cc4)nn3)CC2)nc(N2CCN(C(=O)[C@H]([C@@H](C)CC)n3cc([C@@H](N)Cc4ccc(O)cc4)nn3)CC2)n1 | active: 1.85 µM
30 | CCOC(=O)C1=C(COC(=O)/C=C/c2cccc(OC)c2)NC(=O)NC1C (stereo not given) | inactive
31 | O=C(Nc1ccc(F)cc1)c1cc(-c2ccccc2)no1 | inactive
32 | O=c1oc2ccccc2c(Nc2ccc(O)cc2)c1[N+](=O)[O-] | inconclusive: 18.5 µM [inhibitor, single point]
33 | CCN(c1ccc(OC)cc1)S(=O)(=O)c1nnc(NC(=O)COc2ccc(C)cc2)s1 | inconclusive: 14.7 µM [inhibitor, partial curve, poor fit]
34 | Cc1nc(Cl)c(C(=O)Nc2cccc(F)c2)c(C)c1Cl | inconclusive: 8.28 µM [inhibitor, partial curve, poor fit]
35 | CCc1noc(C)c1C(=O)NC1CCCc2c1cnn2-c1cc(C)cc(C)c1 (stereo not given) | inactive
36 | CC(C)OCCCn1c(=S)[nH]c2ccc(N3CCOCC3)cc2c1=O | inconclusive: 9.28 µM [inhibitor, single point]
37 | O=C(Nc1ccc2c(c1)Cc1ccccc1-2)c1ccc(Br)o1 | inconclusive: 9.28 µM [inhibitor, partial curve]
38 | O=C(CCC(=O)Nc1ccccc1Cl)NNC(=O)c1ccco1 | inconclusive: 10.4 µM [inhibitor, single point]
39 | COc1cc(NC(=O)c2nnn(Cc3ccc(SC)cc3)c2N)cc(OC)c1 | active: 11.7 µM
40 | CCOC(=O)c1cc(C)n(CCc2cnc[nH]2)c1C | inconclusive: 10.4 µM [inhibitor, single point]
41 | COC(=O)CSc1nc(-c2cccs2)ccc1C#N | inconclusive: 4.15 µM [inhibitor, partial curve, poor fit]
42 | CCNC(=O)c1ccc(NC(=O)CC2SC(N3CCCC3)=NC2=O)cc1 (stereo not given) | inactive
43 | N#Cc1c2n(c(=S)n(-c3ccccc3[N+](=O)[O-])c1=O)CCCCC2 | inconclusive: 0.329 µM [inhibitor, partial curve, poor fit]
44 | CCCCOc1ccccc1N1CCN(CCCN2C(=O)C3CCCN3C2=O)CC1 (stereo not given) | inconclusive: 10.4 µM [inhibitor, single point]

Row | Compound | Potency
45 | CCN(c1ccc(NS(=O)(=O)c2cc(Cl)ccc2Cl)cc1)C(C)C | inactive
46 | CCn1c(CCc2ccccc2)nc2ccccc21 | active: 0.131 µM
47 | CCOC(=O)c1c(C)[nH]c(C2=NNC(=Nc3cccc(Cl)c3)SC2)c1C | active: 2.08 µM
48 | NC1=C(c2ccc([N+](=O)[O-])cc2)C(=O)CO1 | inactive
49 | Cc1ncc([N+](=O)[O-])n1CC(=O)Nc1ccccc1F | inconclusive: 0.185 µM [inhibitor, full curve, poor fit]
50 | COc1cc2c(cc1CN1CCN(C(=O)c3cc(OC)c(OC)c(OC)c3)CC1)OCO2 | inconclusive: 11.7 µM [inhibitor, single point]
51 | COC(=O)C1=C(C)N(Cc2ccccc2)C(=NCc2cccc(C(F)(F)F)c2)N[C@H]1c1cccc(F)c1 | inactive and inconclusive: 5.22 µM [inhibitor, partial curve, poor fit]
52 | CCOC(=O)C1(CCc2ccccc2)CCN(C(=O)c2cc(C)nc(C)n2)CC1 | inconclusive: 3.7 µM [inhibitor, full curve, poor fit]
53 | O=C(COc1ccc(Br)cc1)Nc1ccc(CN2CCOCC2)cc1 | inconclusive: 18.5 µM [inhibitor, single point]
54 | CCCn1c(SCC(=O)NCc2ccc(OC)cc2)n[nH]c1=O | inconclusive: 0.117 µM [inhibitor, full curve, poor fit]
55 | CC(C)C[C@H](NC(=O)[C@@H](Cc1ccccc1)n1c(=O)[nH]c2ccccc2c1=O)C(=O)N[C@@H](Cc1ccccc1)C(=O)O | inconclusive: 11.7 µM [inhibitor, single point]
56 | Cn1cc(CN2CC3C[C@@H]4CC2C[C@H](C3)C4)c(-c2ccc3c(c2)OCCO3)n1 | active: 11.7 µM
57 | COc1ccccc1CNC(=O)c1ccc(NS(=O)(=O)c2cccs2)cc1 | inconclusive: 1.31 µM [inhibitor, full curve]
58 | CN1CCC(O)(c2ccc(F)cc2)C(C(=O)c2ccc(F)cc2)C1 (stereo not given) | inactive
59 | O=C(Nc1ccc([N+](=O)[O-])cc1)c1cc2ccccc2nc1Cl | inconclusive: 3.29 µM [inhibitor, full curve]
60 | O=C(NCc1ccco1)c1ccc(C(F)(F)F)cc1 | inactive
61 | CCOC(=O)COc1ccc2c(c1)C(=O)CC(C)(c1cccnc1)O2 (stereo not given) | active: 2.08 µM
62 | COc1ccc(CCn2c(NN=C3CCCC3)nc3c2c(=O)[nH]c(=O)n3C)cc1 | inconclusive: 18.5 µM [inhibitor, single point]
63 | O=C(Nc1cccc(Cl)c1)c1cc([N+](=O)[O-])ccc1N1CCN(CCO)CC1 | active: 3.29 µM
64 | O=C(NC(=S)Nc1ccc(S(=O)(=O)NC2CCCCC2)cc1)c1cccs1 | inconclusive: 18.5 µM [inhibitor, single point]
65 | Cc1ccccc1-c1nc2c3ccccc3nc(=S)n2[nH]1 | inconclusive: 1.31 µM [inhibitor, partial curve, poor fit]
